Results on 79 substances are retold here after the supplement of paper PMC5949888.

Most values lie at the floor of the assay. Slopes are relative: functional sequences can read slightly below zero.

For the data set, the system named is Saccharomyces cerevisiae PS128 hsf1 delta, HSF1(1-493) fusion. As to the kind of experiment: growth estimate (transactivation domain function in HSF1 fusion, heat-shock survival) (a.u. (slope of normalised read count over time)); higher = stronger growth at 37°C, i.e. more transactivation activity. The note with it: library: random library.
With VED, the growth estimate was -0.25.
Regarding VPKSGEVGLSKPGGGVDDKG, the growth estimate is below -0.25.
Take VSRWVPFPAQMTTIARDSIV: the growth estimate was below -0.25.
Next, QIAIQSMGIFAELSRTSGHE: below -0.25; ITWQVWCWG: below -0.25; VVLIVIMGVAARRCIRNERR: below -0.25.
Next, QLGPRPRCEQHRPGSGWPSR: below -0.25.
On to GQHEDLVTGNMA, for which the growth estimate is below -0.25.
The value for KRRSMKR was below -0.25; that for KKGAPFSLRFYRFRSWSTE was -0.231.
TDVNSELWADSVRDNGGMRW: the growth estimate was -0.236.
Next, HGGDNSSRRKNQRPAPLGHY: below -0.25; WEASSRPKTNRYGSGIQALY: below -0.25.
As for EGNDHSCATLGVGGSQPCSL, the growth estimate was below -0.25.
As for RAVHLREVSCPLILVPHGAI, the growth estimate was below -0.25.
The value for FGCGPWQYFLGNRDALSKFG was below -0.25; that for STRAGTVPVGYTATVQSQGT was below -0.25; that for LGMGSVYPSGVCV was below -0.25.
Next, KKVRSSKTHSLAPLNVTQTT: below -0.25; GLEPGLSVKQRTRHGGGHFE: -0.246.
The value for DSTLGCLMGSLFRNPVITWV was -0.225; that for GCTSRGVARIFTVRG was below -0.25.
In the case of EHRFPGAFVE, the growth estimate was below -0.25.
Next, CLKNTFATHCTVVVWGRTPY: below -0.25; AKLWIVPALRLRGSAGDTPR: below -0.25; LLWVEEAQLGRCDRAKCLVH: below -0.251.
YSRADWI: the growth estimate is below -0.25.
For RGVELTDLSDIRGRGTTAES, the growth estimate is below -0.25.
The value for LSFRFGRPSMVAARRPLASV was below -0.25.
The value for LTPSK was below -0.25; that for VNDGQPYDN was -0.243; that for MQGDRWQAARDEAPDTSFF was below -0.25.
The value for VIDVVT was below -0.25; that for LIAKNYMHVPWVKH was below -0.25; that for WEKPRVLELGGQVEWRS was below -0.25.
GQPPIEHSHGGGPSRHWQSL: the growth estimate is below -0.25.
Next, VRWETRGRYKLSKGKFCAVA: below -0.25; SPLRSVLIKIYNLLEPQRCA: below -0.25; RTWAEDDMITAQPVERPRSI: below -0.25.
Next, GRAKTCAPHGIDLKSTRYEG: below -0.25; NRRVGSARWR: below -0.25.
Turning to GITWAGISRHTFRGS, the growth estimate was -0.238.
Next, NRLTTTVRPYRIGQPTGSYH: below -0.25; PAFALFVVFGRFVHEPAIGH: below -0.25; VGLEPG: below -0.25.
Next, CLLLADRSRPVMNEVKNVKE: below -0.25; NVIRFGQRLDAYSTTKLMTR: below -0.25; IGETDPKPRVRRETRHLKDM: below -0.25.
The value for LITDWQPK was below -0.25; that for VTVLERASDRKVIA was below -0.25.
Consider TLTNFSTMHHYFGAVRSPPR, for which the growth estimate is below -0.25.
The value for ASSMAYNMHIACRDSGMSGQ was below -0.25; that for SLRGDKCDLQDIGRSKLASN was below -0.25.
For TLVFADWQAGSPSIVVRPVT, the growth estimate was below -0.25.
The value for EQRGV was below -0.25; that for QNAQTQLYDIADYVSGVRCD was 0.877; that for WLYCGITSGTNQGTPNYLRN was below -0.25.
Turning to GGSGHSLNHQGLH, the growth estimate was below -0.25.
Next, GYASIAVLV: below -0.25; SALLCVSDRRLSVSWGFHRC: below -0.25.
Next, VSPGRALCQIALVELIPDNT: below -0.25; RGYTELICCSPMGVFSLLVY: below -0.25; IMRTFMGTIGSTTRPKVNIG: below -0.25.
The value for AIFAPRILSFGLWPQANHTK was below -0.25; that for DKDFGDDLSGGVDETCDSVA was below -0.25.
In the case of LLGGLSVFQSGGYQSGPVQI, the growth estimate is below -0.25.
The value for RRCT was below -0.25; that for YPRPYYTEGCEIVDVRASDK was below -0.25.
Consider PYLPNV, for which the growth estimate is below -0.25.
The value for HSTEVHTQAMLPKAHWYGP was below -0.25.
AIMPGRLEYTNSMG: the growth estimate was below -0.25.
On to RASALWPPFLDWHGQVLTTY, for which the growth estimate is below -0.25.
Next, HGKKRQPTRKPG: below -0.25; ASRV: below -0.25.
For RLERVWTGHVLVEGFRPLHQ, the growth estimate was below -0.25.
Regarding IRSSTFDH, the growth estimate is below -0.25.
In the case of VQGYS, the growth estimate was below -0.25.
For the substance ELTAGAHGGPAEDRHGRLRA, the growth estimate is below -0.25.
The value for LGVLYY was -0.246.
